# Data as given in US6645989B2, “Compounds” (SmithKline Beecham Corporation, priority 1992, dated 2003).
# Some entries share one result that the patent states for a list of compounds.
# Test system: production of IL-8
# Assay: Interleukin-8 (IL-8) production in primary human umbilical cord endothelial cells (HUVEC), ELISA
# Assay type: cell-based
# Conditions: test compound between 1 and 10 μM, 6 h
row,SMILES,inhibition of IL-8 (dose dependent reduction in the production of IL-8)
1,"Oc1ccc(-c2nc(-c3ccc(F)cc3)c(-c3ccncc3)[nH]2)cc1 [Example 8b, 4-(4-Fluorophenyl)-2-(4-hydroxyphenyl)-5-(4-pyridyl)-1H-imidazole]",50-65%
2,"Cn1c(-c2ccc(C(=O)[O-])cc2)nc(-c2ccccc2)c1-c1ccncc1.[Na+] [Example 5, 4-[1-Methyl-4-phenyl-5(4-pyridyl)-imidazol-2-yl]benzoic acid, sodium salt]",50-65%
